According to patent US20170189524A1 (IMMUNOQURE, published 2017):
Results are given in words; binding and its absence hold for the method and conditions named. A result given as binding can be weak or reduced; the word gives no strength.

Key:
[1] = target: T1, Type I IL-20 receptor (IL-20RA/IL-20RB) on transfected HEK 293T MSR cells (human) (UniProt Q9UHF4); test: LCBA (FIG. 7D)
T1 sequence (looked up) 1: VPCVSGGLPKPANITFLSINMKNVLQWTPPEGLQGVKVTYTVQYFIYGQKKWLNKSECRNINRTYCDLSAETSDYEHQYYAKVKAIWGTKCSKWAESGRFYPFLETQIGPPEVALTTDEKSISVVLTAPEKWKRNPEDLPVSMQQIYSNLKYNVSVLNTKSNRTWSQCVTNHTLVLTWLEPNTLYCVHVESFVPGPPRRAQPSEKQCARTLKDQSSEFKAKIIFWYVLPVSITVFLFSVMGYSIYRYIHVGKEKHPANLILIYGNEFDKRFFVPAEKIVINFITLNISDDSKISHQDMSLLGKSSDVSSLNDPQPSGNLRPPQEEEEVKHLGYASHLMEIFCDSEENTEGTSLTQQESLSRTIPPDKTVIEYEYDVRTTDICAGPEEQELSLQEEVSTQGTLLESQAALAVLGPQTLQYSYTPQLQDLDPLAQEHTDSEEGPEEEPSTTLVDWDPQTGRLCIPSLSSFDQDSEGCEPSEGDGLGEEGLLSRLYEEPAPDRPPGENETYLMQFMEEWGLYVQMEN
T1 sequence (looked up) 2: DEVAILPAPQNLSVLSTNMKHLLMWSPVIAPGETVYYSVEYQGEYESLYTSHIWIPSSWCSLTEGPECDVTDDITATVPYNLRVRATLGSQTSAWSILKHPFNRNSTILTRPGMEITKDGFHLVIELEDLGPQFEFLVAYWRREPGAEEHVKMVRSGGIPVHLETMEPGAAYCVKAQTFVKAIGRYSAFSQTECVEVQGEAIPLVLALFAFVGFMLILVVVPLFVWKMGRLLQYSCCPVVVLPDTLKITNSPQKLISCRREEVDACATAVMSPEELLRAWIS

[2] = target: T1, Type I IL-20 receptor (IL-20RA/IL-20RB) on transfected HEK 293T MSR cells (human); test: chemiluminescent cellular binding assay (LCBA)
[3] = target: g1 IL-20 (fusion protein of human IL-20 with Gaussia luciferase at the IL-20 N-terminus) (human); test: LCBA, antibody 5 µg/ml (FIG. 7F)
[4] = target: g1 IL-20 (fusion protein of human IL-20 with Gaussia luciferase at the IL-20 N-terminus) (human); test: GLuc-sandwich ELISA
[5] = target: g1 IL-20 (fusion protein of human IL-20 with Gaussia luciferase at the IL-20 N-terminus) (human); test: EC 50 ELISA (FIG. 3)
[6] = target: g1 IL-20 (fusion protein of human IL-20 with Gaussia luciferase at the IL-20 N-terminus) (human); test: LCBA (FIG. 7E, 7F)
[7] = target: g1 IL-20 (fusion protein of human IL-20 with Gaussia luciferase at the IL-20 N-terminus) (human); test: LCBA
[8] = target: g1 IL-20 (fusion protein of human IL-20 with Gaussia luciferase at the IL-20 N-terminus) (human); test: chemiluminescent cellular binding assay, IC 50 analysis (FIG. 8)

Measured: binding

g1 IL-20 (fusion protein of human IL-20 with Gaussia luciferase at the IL-20 N-terminus) (ligand)
binds: [1] | [2]

B1: antibody 6E11 (antibody, IgG1, V domains shown)
VH: QVQLVQSGAEVKKPGSSVKVSCKASGGTFRNYAINWVRQAPRQGLEWMGSLVPMFTSPTYAQKFRGRVTISADESTATSSMELTSLTSEDTAVYFCSADGYKGGLFYGMNVWGQGTTVTVSS
VL: DIVLTQSPESLAVSLGERATINCKSSQSVLYSSNSKNYLAWFQQKPGQPPKLLIYWASTRESGVPDRFSGSGSGTDFTLTITSLQAEDVAVYYCHQYHTLPRTFGHGTKVEIKR
notes: IgG1; also called MAb 6E11
binds: [3] | [4] | [5]

B2: antibody 20A10 (antibody, human IgG4, kappa, V domains shown)
VH: QVQLVQSGAEVKKPGSSVKVSCKTSGGTFSTSTLSWVRQAPGQGLEWLGGMIPILSRTTYAQKFQGRLTITADEPTSTSYMELSSLKSEDTAVYYCATEGEVSAAHNYYYGMDVWGQGTTVTVSS
VL: DIVLTQSPLYLPVTPGEPASISCRSSQSLLHGNGHNYLDWYLQKPGQSPQLLIYLGSNRASGVPDRFSGSGSGTDFTLKISRVEAEDVGVYYCMQTLHTVFTFGPGTRVDIKR
notes: Recombinant human-derived antibody; also called MAb 20A10; 20A0
binds: [6] | [7] | [4] | [8] | [5]
